# Source: patent US6737397B1, “Control of cancer growth through the interaction of [MET5]-enkephalin and the zeta receptor” (The Penn State Research Foundation, priority 1996, dated 2004)
# For some assays here: Not every detail of the peptide structures is certain; ends, links or a residue may be inferred. At least one structure is not confirmed: it was looked up by name or label, or the drawing left a doubt. Some of these results come from one statement about several compounds together.
# Legend:
# [1] = target: T1, ζ-opioid receptor (Homo sapiens, UniProt Q9NZT2); test: Competition for binding of [3H][Met5]enkephalin (4.0 nM) in nuclear homogenates of HT-29 human colon tumors; parameters: from tissue; host or cells: HT-29 human colon tumor xenografts grown in athymic nude mice; nuclear (P1) and other subcellular fractions
# T1 sequence (Q9NZT2 1-677): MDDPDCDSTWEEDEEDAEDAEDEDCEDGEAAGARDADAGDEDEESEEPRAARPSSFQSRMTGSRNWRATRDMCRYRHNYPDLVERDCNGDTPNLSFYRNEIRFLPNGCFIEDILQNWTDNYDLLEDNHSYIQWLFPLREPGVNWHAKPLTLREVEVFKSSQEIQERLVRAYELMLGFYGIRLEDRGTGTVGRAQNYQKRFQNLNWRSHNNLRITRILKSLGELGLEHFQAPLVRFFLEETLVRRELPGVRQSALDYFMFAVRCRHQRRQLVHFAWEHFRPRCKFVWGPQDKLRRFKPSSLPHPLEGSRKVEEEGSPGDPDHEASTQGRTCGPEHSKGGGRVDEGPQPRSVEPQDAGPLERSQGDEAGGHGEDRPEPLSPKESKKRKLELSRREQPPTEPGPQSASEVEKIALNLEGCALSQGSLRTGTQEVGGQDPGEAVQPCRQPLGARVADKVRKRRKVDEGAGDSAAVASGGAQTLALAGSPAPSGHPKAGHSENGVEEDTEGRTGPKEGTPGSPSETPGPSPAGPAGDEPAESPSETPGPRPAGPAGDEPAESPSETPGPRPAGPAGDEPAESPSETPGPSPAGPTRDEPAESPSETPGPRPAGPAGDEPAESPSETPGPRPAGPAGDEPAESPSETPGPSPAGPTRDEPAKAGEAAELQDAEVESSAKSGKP
# [2] = target: T1, ζ-opioid receptor; test: Effect of cations and guanyl nucleotides on [3H]-[Met5]-enkephalin binding to HT-29 nuclear homogenates; parameters: from tissue; host or cells: HT-29 human colon tumor xenografts grown in athymic nude mice; nuclear (P1) and other subcellular fractions; details: 5, 50, and 100 mM
# Source text: Histograms represent the percent of specific binding±SE.
structure (smiles),measurement,setting,value
"CSCC[C@H](NC(=O)[C@H](Cc1ccc(OS(=O)(=O)O)cc1)NC(=O)[C@@H](N)CC(=O)O)C(=O)NCC(=O)N[C@@H](Cc1c[nH]c2ccccc12)C(=O)N[C@@H](CCSC)C(=O)N[C@@H](CC(=O)O)C(=O)N[C@@H](Cc1ccccc1)C(N)=O [CCK-8, cholecystokinin octapeptide]",IC50,[1],0.103 ± 0.002 µM
same,Ki,[1]; read-out: KI nM,79 ± 2 nM
[Ca+2].[Cl-].[Cl-] [CaCl2],reduction of specific [3H]-[Met5]-enkephalin binding,[2],≤ 82%
"CC1(C)SSC(C)(C)[C@@H](NC(=O)[C@@H](N)Cc2ccc(O)cc2)C(=O)NCC(=O)N[C@@H](Cc2ccccc2)C(=O)N[C@H]1C(=O)O [DPDPE, [D-Pen^2,5]-enkephalin]",less potent than [Met5]-enkephalin in displacing radiolabeled [Met5]-enkephalin binding,[1],6.0 fold
C[C@H](N)C(=O)NCC(=O)N[C@H]1CSSC[C@@H](C(=O)O)NC(=O)[C@H](CO)NC(=O)[C@H]([C@@H](C)O)NC(=O)[C@H](Cc2ccccc2)NC(=O)[C@H]([C@@H](C)O)NC(=O)[C@H](CCCCN)NC(=O)[C@H](Cc2c[nH]c3ccccc23)NC(=O)[C@H](Cc2ccccc2)NC(=O)[C@H](Cc2ccccc2)NC(=O)[C@H](CC(N)=O)NC(=O)[C@H](CCCCN)NC1=O [Somatostatin],ability to compete in displacing [3H]-[Met5]-enkephalin binding,[1],little activity
